These are yes or no findings as the source states them, for the method shown. Some results given as binding are weak or reduced against the parent protein; the word gives no strength.
Key:
[1] = target: T1, domain B-deleted PLXDC1 (on transfected cells) (human) (UniProt Q8IUK5); assay: staining of transfected cells with 20 nM antibody, fluorescence microscopy
T1 sequence: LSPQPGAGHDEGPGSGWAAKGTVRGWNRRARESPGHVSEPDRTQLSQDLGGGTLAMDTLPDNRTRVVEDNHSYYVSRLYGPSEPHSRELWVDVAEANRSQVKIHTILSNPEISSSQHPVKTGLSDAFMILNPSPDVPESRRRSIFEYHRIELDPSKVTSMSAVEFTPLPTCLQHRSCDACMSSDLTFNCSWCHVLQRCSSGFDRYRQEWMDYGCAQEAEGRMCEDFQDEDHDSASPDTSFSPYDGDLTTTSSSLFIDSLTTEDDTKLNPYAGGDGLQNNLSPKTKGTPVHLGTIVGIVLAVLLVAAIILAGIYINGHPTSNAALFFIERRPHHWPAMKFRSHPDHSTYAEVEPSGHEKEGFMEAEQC

[2] = target: T1, domain B-deleted PLXDC1 (on transfected cells) (human); assay: antibody staining of transfected cells

B1: 3-G7 (antibody, V domains shown)
VH: QVQLVQSGAEVKKPGSSVKVSCKASGGTFSTEYISWVRQAPGQGLEWMGRIIPVLGITNYAQKFQGRVTITADESTSTAYMELSSLRSEDTAVYYCARHLGPPYLVTYSHGFDVWGQGTLVTVSS
VL: EIVMTQSPATLSVSPGERATLSCRASQSLGTNLAWYQQKPGQAPRLLIYGASTRATGIPARFSGSGSGTEFTLTISSLQSEDFAVYYCQQYYEAPPTFGQGTKVEIK
binding [1]: binds
binding [2]: binds

Source: patent US20210147525A1 (University of California, published 2021)
